Values of other authors, collected in patent publication US20240066015A1, “TREATMENT OF PAIN ASSOCIATED WITH PARKINSON'S DISEASE” (BIAL-PORTELA & CA., S.A., priority 2021, published 2024).
At least one compound was matched to its structure with a doubt left.

Conditions: hot plate test

CCN(CC)C(=O)/C(C#N)=C/c1cc(O)c(O)c([N+](=O)[O-])c1 [entacapone]
mediation of the analgesic effect: not mediated through the CNS
